Assay results from publication PMC5325336.
Results are given in words; binding and its absence hold for the method and conditions named. In cells and extracts the contact can be indirect. Binding calls can cover weak binding; strength is not graded here. Tags and fused reporters may be left off the sequences shown.

Biological target: T1, myc-tagged porcine BCL-G (porcine) (UniProt F1SQ67)
T1 sequence: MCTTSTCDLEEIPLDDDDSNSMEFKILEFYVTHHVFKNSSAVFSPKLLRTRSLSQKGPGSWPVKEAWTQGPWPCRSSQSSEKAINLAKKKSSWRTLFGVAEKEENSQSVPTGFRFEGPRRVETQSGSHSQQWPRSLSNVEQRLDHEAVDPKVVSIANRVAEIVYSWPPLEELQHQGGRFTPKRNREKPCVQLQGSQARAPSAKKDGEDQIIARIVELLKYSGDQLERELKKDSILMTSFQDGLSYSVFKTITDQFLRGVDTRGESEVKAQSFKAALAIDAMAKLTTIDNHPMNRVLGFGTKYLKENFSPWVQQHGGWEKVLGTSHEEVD
Test: co-IP; Pierce Mammalian c-Myc Tag IP/Co-IP Kit; SUVEC cells co-transfected, lysed about 36 hours later in M-PER; lysate incubated overnight at 4°C with anti-c-Myc agarose; washed with TBS plus 0.05% Tween-20; blot with anti-HA tag or anti-myc tag antibody

In the case of HA-tagged porcine JAB1, the binding is reported as “binds”.
